Hit rate of the full screen: of about 53,000 sequences, about 3,700 (7%) were called active.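 Rule for the calls: active = gene knockdowns whose robust z-score for IL-1 alpha signal is at least 2 or at most -2, so actives lie on both sides; inactive = the rest.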 Some of the results follow.

This assay can be described thus: Components of the Cytosolic LPS Sensing Pathway: Gene Identification via Genome-wide siRNA Screen.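 Note: robust z of the log signal after scaling to non-targeting control siRNA wells of the plate.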 The conditions noted are these: RAW264.7 macrophages, IL-1a HTRF, actives lie on both sides, screened at 100 nM (by protocol), cells primed 5 h with Pam3CSK4 first. In outline: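 Knockdown: 100 nM siRNA, 48h, RAW264.7. Stimulation: Pam3CSK4 5 h, then LipidA via TransIT-TKO 24 h. Output: supernatant IL-1a HTRF, negative-control-normalized, log robust z-score; viability by CellTiter-Glo.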
(TR-FRET usually uses a lanthanide donor and a delayed reading to cut background.)
In the case of GCGAAGUCAAGCCUACUUUTT against B3gat1, the z-score is inactive: 0.343.
To CCUUAGACCUAACAAACAATT against Rab23 belongs inactive: -0.353.
The value for GGAGGAUAUAAAAAAGAAGTT against L2hgdh was inactive: 0.00317; that for GGAGAUGAACAAGGACCUATT against Apoa1 was inactive: 0.717; that for GGUUACAGUGACACAGCCUTT against Slc16a8 was inactive: -1.98.
Turning to “AUCUUUCAGUCACACGACCTT against A730085E03Rik”, the z-score was inactive: -0.942.
To GGAUAUUAACUAUGGGUUUTT against Tlr2 belongs inactive: 0.605.
As to GGUCCUAAAUUUCUACCAATT against Dnase1l1, the z-score was inactive: -0.15.
The value for CGGAGUCAUACUUUUUCGATT against Trim12c was inactive: 0.0182.
The value for CGUGCAGAUACCACUUCACTT against Podn was inactive: -0.457; that for GGUGUGUUAUCGAUUUUACTT against Fut2 was inactive: -0.0965.
Turning to GGCUCUUACAUAAACUCUATT against Tecta, the z-score was inactive: 0.987.
To GCACAAACCCUCGAACUUGTT against Nkx6-2 belongs inactive: 1.55; to GGCAUGUUGAUGGGAAUUUTT against Srp9, inactive: 0.536.
GGUGCUGAAGAUGUGUUGATT against Phospho1: the z-score was inactive: 0.564.
As for GGGCCUCCUUCUCAUCAUUTT against Scarf2, the z-score was inactive: 0.9.
As to GGUCCAUGGGUAAGAGGAUTT against Vmn1r43, the z-score was inactive: 1.2.
Turning to GGUGAAGUAUUUGACUAUUTT against Mark3, the z-score is inactive: 0.281.
To CGUGCACUUAGAAAACCCGTT against Garnl3 belongs inactive: -1.4; to CCGUUUUUCAACGACGAGUTT against Fcna, inactive: 0.337.
To GCUACAGACUGAACAAUGATT against Rbm17 belongs active: -2.08; to CCGUUACUACAAAUUCUAUTT against Zcchc8, inactive: -0.48.
For GGCAACACCAUCACCGAGATT against Nsmce3, the z-score was inactive: -0.0349.
The value for CCAUAUUUGAAGAAGUCCATT against Espl1 was inactive: -0.325; that for CUAUUUGGUAGCCUAACUUTT against Acsl1 was inactive: -0.413.
The value for GGCAAAUAUUCAGUUUGGATT against Scarb2 was inactive: -0.00406; that for GGCUCUAUCCACCAGUAAUTT against Cyp4a14 was inactive: -0.601.
The value for GCCAAGUUCAUUGGUGCUGTT against Atp5g1 was inactive: -1.12; that for GGAGAGUGAAGUGAAAAGCTT against Dhrs1 was inactive: -0.351.
With CCUUAGCUAAAUUUACUGGTT against Bche, the z-score is inactive: 0.528.
To GGGUGAAAUACUUCUUUGATT against Cxcl15 belongs inactive: -0.0783; to GGUGAUUAAGAAAGAGGAUTT against Exosc8, inactive: 1.56; to GCUCCAUUUCAGUCAUCGATT against Klrc1, inactive: -1.05.
The value for CCAUAAGAAAGGAGACUAGTT against Il33 was inactive: -0.85.
The value for GGCCAAGAAGGUGUGGUACTT against Zmat5 was inactive: -1.72.
On to GCUCGUUCUGAAGAUAAGUTT against Isg20l2, for which the z-score was inactive: -0.191.
The value for GGCAGUGUUGACCAACAUGTT against Map3k21 was inactive: 0.427; that for GCGCAUCCUAUUCCAGCACTT against Pctp was inactive: -0.59; that for CCAAGACCAUCCAAUUCAUTT against Il6 was inactive: 0.0458.
To GCCAUUCUAGGAACUCUGATT against Thrap3 belongs inactive: -1.3; to GCAAAGUACCCACCUUUGUTT against Pitpna, active: 2.06.
To GGACGCGGGAAAAAUGUUCTT against Hnrnpab belongs inactive: 1.37.
In the case of GGUGGACACAUAUAGUCCCTT against Col27a1, the z-score is inactive: 1.5.
The value for GGAGUUAAGCUAGAGAACUTT against Arsj was inactive: -0.648.
To GGGAUACUCCAAGUUCCAUTT against Muc4 belongs active: 2.85; to CCACAUCUCGCAAACACGATT against Ankrd34a, inactive: -1.76.
The value for GCCCGGAGAACAUGAUUAUTT against Tead4 was inactive: 1.11; that for GGAGAAAUGUGAUGUACAATT against Mob3a was inactive: 1.54; that for GGGAAUAUCACAGGUGCCATT against Axl was inactive: -0.737.
For the sequence GGAACAUCACAGAAGCUACTT against Olfr141, the z-score is inactive: -0.519.
For the sequence CGGAAUGUAGGACACGAAUTT against Ltb, the z-score was inactive: -0.267.
The value for GCCUCUCUAUGUGCACCACTT against Vmn1r5 was inactive: -1.26; that for GGGAAGUCCAAAUAACGGATT against Zfp184 was inactive: 0.136; that for GCAGCAUAGAGACUAAAUCTT against Usp17la was inactive: 0.604.
To UCAACUGCUUAGAGCAUGUTT against Tmem259 belongs inactive: 0.653; to GCUAGAUGCUACGAGAUUGTT against Tipin, inactive: 0.305; to GGUGGACAUGCUGAAGUUGTT against Naga, inactive: -0.84.
The value for GUCUUUCCCUAAAAACAGCTT against Vmn1r47 was inactive: -1.28.
As for GGCUUCCUAUCUGAUUACUTT against Acsl4, the z-score was inactive: 0.498.
The value for GCUAUACGUACAAUGGCAATT against Prrg2 was inactive: -1.7.
CCGGUAUUACAACAAGUACTT against Atp5j2: the z-score was inactive: 1.01.
The value for GUUGAUGAUAGAUCGUCAATT against Fbxw24 was inactive: 0.358; that for GCAUGUGAUGCUACGUAUATT against Fmr1 was inactive: -0.742.
To GCUCAUUGGAUGUUGCUGATT against Elf1 belongs inactive: -0.069.
Take UAUCGUCCACAACUACUCATT against Epn1: the z-score is inactive: 1.14.
Regarding CCACUACUUUCCUACAAAUTT against Stard8, the z-score is inactive: 0.181.
To GGCUCAGUGAGUUUCAGAATT against Snx25 belongs active: 3.66.
The value for GGAAGGACUUAAAUGAUGCTT against Rnf187 was inactive: -1.18; that for GCUGAUGUGAACUCAUCAUTT against Atp5md was inactive: -0.173.
The value for GGAUAUCAACUCUUGCUUUTT against Gmcl1 was inactive: 1.26.
Take CCAUCUUGGGUUCUGGUCATT against Zc3h4: the z-score is inactive: -0.204.
To CGAGUUAGUUUUUCUGGGCTT against Tctex1d4 belongs inactive: 0.997; to CCCAAUAACAUCUUAAGAUTT against Lyn, inactive: -0.254; to GCCCAACCCAUCAUAGAUCTT against Puf60, inactive: 1.6.
The value for GAAUGUUCCUCAUGUCGUCTT against Olfr65 was inactive: -0.452; that for GGCAUGAUGUUCAUGGAUATT against Nup62 was active: -2.04.
To GCCAUCAUCUUUGUUUAGUTT against Gm4952 belongs inactive: -0.684; to GUCACCAGACUUGUGUGGATT against Svs3b, inactive: -0.726.
On to GGCAUUUUAGUAAUAAGCATT against Mkln1, for which the z-score was inactive: -1.84.
The value for AACACGGCUCUAGCCAAUCTT against Ypel4 was inactive: -1.25; that for GGAAGUUGACUCCAUUUCCTT against Gpr143 was inactive: 1.22.
To GGAACGAAUGAAAAGACUUTT against Tpp2 belongs inactive: 0.35; to GGACAAUCAGGAAUCAUAUTT against Recql, inactive: -1.94.
With GGUACACAAACAAGUAUUCTT against Eif3d, the z-score is inactive: 1.29.
With GGAGCCUCCAUAGAAACCATT against Klk1b9, the z-score was inactive: -0.863.
To GGAGAAGUAUGGAGAGAUUTT against U2af1l4 belongs inactive: 0.47; to GGAAGUCCAGGGAUACAUGTT against Erbb2, inactive: -1.31.
To GCAGUUGGGCUCCUAUGAUTT against Mrps16 belongs inactive: -0.482; to GGCCUCUACUUCUUUGAAUTT against Cmtm6, inactive: -1.19.
To CCCAAUGCAUCUCUGCUCATT against Hepacam2 belongs inactive: -0.203; to GGUGAUUCUGGAUAAAUACTT against Tmprss4, inactive: -0.94.
With CCACAGCAAGAUGUGUAUGTT against Rnf125, the z-score is inactive: -1.68.
To GGAAAUGACUUGUGAUGAUTT against Pik3ap1 belongs inactive: -0.653; to CCCACAGGUUCAAGAACCGTT against Usf3, inactive: 0.608.
For the sequence GGCUUCCACGUAAUUGUCCTT against Six3os1, the z-score is inactive: 0.649.
The value for GGAGCUGAGGAGAAAGACATT against Rdh16f2 was inactive: 1.3.
To UUAUUCUCACUGGUUUGUATT against Olfr746 belongs inactive: -0.655; to GGAAUUACUGGCCUGGGUATT against Nox3, inactive: 0.767; to GGAGCUGUCUAAUCAUAAUTT against Clasp2, inactive: -0.109.
To GGAACUGGAACACAUGGUUTT against Dtd1 belongs inactive: -0.641.
Turning to GCAACAGUUGGUCUAAAAUTT against Psma1, the z-score was active: -2.11.
The value for GGAGUUACGUAGAACUACCTT against Adam25 was inactive: 0.543; that for GGAUGUCAGAGAUAUAUUUTT against Fbh1 was inactive: -0.61; that for GCUCGAUCCCUCUUUCAUCTT against Mpst was inactive: -1.25.
The value for CCCUAGAAUUGCUACAGUCTT against Tcea1 was inactive: 1.76; that for CGGAAGUGUCAAAACCAGATT against Zbtb49 was inactive: -0.642; that for GGCUGUGAGAUAGAUCUAATT against Arhgef40 was active: 2.07.

Source of the values: PubChem BioAssay AID1508600 (Functional Genomics Laboratory (NCATS/FGL), 2020).
